# These are yes or no findings as the source states them, for the method shown. Binding seen in cells or lysates may run through a third protein. Binding can be weak; no strength is given. Where a sequence is shown, tags or fusion partners need not be part of it.
# Molecular target: T1, His-GFP-IDM1 (His-sfGFP fused at the N-terminus of IDM1) (Arabidopsis thaliana) (UniProt F4IXE7)
# T1 sequence: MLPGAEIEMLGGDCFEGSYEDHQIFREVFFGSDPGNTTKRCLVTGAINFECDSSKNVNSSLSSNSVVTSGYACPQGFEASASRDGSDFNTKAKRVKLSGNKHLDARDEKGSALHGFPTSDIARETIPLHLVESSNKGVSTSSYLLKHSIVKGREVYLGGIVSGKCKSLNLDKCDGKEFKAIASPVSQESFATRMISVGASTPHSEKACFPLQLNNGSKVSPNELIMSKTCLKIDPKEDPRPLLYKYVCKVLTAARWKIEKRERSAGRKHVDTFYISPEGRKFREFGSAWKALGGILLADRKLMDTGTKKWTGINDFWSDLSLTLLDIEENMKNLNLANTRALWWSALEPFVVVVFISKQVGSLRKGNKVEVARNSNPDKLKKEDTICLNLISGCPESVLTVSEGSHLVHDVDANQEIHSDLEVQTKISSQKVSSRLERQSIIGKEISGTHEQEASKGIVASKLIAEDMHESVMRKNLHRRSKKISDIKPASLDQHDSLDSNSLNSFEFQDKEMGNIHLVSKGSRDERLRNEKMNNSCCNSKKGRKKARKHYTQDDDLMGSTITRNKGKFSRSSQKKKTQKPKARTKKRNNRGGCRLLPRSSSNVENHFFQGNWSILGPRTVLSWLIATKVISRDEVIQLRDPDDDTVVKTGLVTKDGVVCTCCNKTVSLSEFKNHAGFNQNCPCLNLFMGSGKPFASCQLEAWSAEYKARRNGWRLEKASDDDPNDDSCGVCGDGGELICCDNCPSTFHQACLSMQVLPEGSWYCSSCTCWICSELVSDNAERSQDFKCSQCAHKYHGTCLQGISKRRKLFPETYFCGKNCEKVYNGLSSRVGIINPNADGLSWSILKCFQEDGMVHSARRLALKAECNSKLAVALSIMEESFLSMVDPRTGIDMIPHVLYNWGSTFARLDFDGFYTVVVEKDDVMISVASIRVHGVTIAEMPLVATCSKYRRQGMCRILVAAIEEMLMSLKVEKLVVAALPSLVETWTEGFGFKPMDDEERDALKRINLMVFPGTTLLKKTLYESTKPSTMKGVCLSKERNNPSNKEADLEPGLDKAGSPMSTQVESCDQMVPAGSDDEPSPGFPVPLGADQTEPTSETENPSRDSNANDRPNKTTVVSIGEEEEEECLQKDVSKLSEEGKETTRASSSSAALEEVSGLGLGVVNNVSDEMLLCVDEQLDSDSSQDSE
# Assay: co-purification (His-tag affinity, SDS-PAGE); IDM complex without encapsulin, coexpressed in insect cells, purified with the His-tag on the N-terminus of IDM1 (His-sfGFP-IDM1 as bait)
row,Substance,binding
1,HDP2 (Arabidopsis thaliana),binds
2,HDP1 (Arabidopsis thaliana),binds

# From PMC7565527, “Cryo-EM Structure of Heterologous Protein Complex Loaded Thermotoga Maritima Encapsulin Capsid” (Biomolecules, 2020)
